The values below come from publication PMC10534853.

Results are given in words; binding and its absence hold for the method and conditions named. Binding seen in cells or lysates may run through a third protein. A result given as binding can be weak or reduced; the word gives no strength.

In assay [1] the target is p53 (Flag-p53) (not stated (cDNA from 'the cells'; the paper's cells, HEK-293T and HeLa, are human)) (UniProt P04637). Put plainly: co-IP.
The target of assay [2] is Brucella effector protein BspF (HA-BspF) (Brucella abortus) (UniProt Q2YLT8). Put plainly: co-IP.

Consider “Brucella effector protein BspF (HA-BspF) (from UniProt Q2YLT8)”, for which the binding result in assay [1] is “binds”.

With “p53 (Flag-p53) (from UniProt P04637 1-393)”, in assay [2], the binding result was “binds”.
